Results on one compound are retold here after patent US9623012B2, “Formulation comprising benzothiazolone compound” (priority 2013, dated 2017).

For this experiment, the system named is Male Wistar Han IGS rats. In kind it is in vivo. Particulars: rat, s.c. minipump 4 weeks; formoterol 0.003-0.03, Compound A 0.01-0.1 mg/kg/day.

As for `COc1ccc(CC(C)NCC(O)c2ccc(O)c(NC=O)c2)cc1` (stereo not shown) [Formoterol, reference compound], the “skeletal muscle mass and heart mass increase (FIG. 1)” value is “induces both skeletal muscle hypertrophy and heart mass increase to the same extent”.
